Drawing on the supplement of paper PMC6411743, this text covers NP40-soluble protein abundance for 15 targets.

Chains of the proteins cited; added tags and fusions are not shown. Lines headed by an entry give the natural chain unless they say otherwise; changes in a name come on top.
UniProt Q8NC42: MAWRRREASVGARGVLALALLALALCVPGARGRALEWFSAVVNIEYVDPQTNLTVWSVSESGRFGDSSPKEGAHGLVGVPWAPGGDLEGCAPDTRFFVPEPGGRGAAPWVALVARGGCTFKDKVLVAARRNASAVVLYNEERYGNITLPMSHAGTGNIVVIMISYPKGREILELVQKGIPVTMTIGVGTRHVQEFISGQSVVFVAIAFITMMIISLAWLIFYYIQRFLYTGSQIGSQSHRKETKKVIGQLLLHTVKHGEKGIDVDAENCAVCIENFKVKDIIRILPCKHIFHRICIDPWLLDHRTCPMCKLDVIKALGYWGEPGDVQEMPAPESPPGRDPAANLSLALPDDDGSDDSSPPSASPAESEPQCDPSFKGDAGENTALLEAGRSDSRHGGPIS
UniProt Q6L8Q7: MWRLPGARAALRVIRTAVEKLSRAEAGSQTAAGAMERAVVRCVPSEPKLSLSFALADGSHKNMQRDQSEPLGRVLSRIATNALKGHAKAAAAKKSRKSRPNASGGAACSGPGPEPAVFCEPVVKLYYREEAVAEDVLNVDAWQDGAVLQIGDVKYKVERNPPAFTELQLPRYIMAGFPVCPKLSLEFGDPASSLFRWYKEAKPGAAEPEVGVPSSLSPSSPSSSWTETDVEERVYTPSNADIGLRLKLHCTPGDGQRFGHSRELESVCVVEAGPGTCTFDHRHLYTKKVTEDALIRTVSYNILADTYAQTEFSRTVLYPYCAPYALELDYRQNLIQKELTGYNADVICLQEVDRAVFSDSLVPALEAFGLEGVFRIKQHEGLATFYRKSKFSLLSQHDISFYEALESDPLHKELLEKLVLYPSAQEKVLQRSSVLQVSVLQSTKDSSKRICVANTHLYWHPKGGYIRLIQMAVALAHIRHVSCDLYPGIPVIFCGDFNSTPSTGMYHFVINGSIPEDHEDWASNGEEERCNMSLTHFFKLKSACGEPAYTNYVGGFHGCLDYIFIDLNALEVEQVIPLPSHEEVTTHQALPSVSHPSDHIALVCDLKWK
UniProt Q9HBF4: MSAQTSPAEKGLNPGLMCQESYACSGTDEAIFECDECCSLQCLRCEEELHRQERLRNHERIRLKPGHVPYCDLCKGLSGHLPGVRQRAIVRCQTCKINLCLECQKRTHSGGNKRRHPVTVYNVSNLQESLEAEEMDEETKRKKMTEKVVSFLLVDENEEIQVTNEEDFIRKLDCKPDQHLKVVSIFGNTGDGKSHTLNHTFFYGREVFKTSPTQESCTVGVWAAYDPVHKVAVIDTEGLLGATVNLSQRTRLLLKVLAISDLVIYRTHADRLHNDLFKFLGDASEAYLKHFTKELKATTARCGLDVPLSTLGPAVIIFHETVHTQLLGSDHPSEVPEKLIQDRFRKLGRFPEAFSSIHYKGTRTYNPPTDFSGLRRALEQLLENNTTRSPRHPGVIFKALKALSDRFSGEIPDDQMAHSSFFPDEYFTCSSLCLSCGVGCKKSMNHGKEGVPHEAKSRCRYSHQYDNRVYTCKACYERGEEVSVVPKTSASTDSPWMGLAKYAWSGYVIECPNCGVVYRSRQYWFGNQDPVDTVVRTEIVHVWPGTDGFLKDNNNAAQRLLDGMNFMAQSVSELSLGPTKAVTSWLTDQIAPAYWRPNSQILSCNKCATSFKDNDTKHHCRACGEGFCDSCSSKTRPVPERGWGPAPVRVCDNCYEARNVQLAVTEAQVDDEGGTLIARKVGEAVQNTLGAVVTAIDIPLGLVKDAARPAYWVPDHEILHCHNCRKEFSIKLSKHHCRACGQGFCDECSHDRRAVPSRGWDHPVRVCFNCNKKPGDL
UniProt Q12768: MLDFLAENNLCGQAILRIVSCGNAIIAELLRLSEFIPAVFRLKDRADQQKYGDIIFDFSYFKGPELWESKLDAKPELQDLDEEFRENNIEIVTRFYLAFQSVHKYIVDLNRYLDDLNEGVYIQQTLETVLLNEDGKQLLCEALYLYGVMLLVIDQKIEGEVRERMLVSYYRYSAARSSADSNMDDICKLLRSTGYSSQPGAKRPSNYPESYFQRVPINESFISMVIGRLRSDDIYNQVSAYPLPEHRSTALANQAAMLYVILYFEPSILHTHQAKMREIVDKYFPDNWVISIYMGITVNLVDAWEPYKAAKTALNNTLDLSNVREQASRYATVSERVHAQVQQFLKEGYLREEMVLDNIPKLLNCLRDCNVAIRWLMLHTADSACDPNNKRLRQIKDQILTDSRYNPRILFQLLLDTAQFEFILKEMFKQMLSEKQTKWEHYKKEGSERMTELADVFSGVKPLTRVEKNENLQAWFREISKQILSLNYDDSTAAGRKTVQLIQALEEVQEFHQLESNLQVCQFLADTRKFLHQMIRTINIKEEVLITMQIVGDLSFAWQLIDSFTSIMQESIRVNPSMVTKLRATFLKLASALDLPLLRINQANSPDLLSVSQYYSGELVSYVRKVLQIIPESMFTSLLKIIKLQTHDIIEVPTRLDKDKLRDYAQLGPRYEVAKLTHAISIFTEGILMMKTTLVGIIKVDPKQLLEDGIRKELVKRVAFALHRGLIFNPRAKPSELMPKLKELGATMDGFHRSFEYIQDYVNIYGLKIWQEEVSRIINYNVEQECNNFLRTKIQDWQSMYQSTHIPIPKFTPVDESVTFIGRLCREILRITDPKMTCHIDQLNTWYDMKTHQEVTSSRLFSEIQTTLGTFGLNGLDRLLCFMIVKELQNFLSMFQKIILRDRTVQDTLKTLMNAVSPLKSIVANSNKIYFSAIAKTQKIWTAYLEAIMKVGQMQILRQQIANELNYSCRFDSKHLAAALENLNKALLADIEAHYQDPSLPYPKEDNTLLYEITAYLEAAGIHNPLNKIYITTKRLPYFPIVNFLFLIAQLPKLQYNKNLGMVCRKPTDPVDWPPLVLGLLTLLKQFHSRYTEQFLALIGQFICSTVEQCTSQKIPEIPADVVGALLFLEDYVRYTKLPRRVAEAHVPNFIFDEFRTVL
UniProt O43913: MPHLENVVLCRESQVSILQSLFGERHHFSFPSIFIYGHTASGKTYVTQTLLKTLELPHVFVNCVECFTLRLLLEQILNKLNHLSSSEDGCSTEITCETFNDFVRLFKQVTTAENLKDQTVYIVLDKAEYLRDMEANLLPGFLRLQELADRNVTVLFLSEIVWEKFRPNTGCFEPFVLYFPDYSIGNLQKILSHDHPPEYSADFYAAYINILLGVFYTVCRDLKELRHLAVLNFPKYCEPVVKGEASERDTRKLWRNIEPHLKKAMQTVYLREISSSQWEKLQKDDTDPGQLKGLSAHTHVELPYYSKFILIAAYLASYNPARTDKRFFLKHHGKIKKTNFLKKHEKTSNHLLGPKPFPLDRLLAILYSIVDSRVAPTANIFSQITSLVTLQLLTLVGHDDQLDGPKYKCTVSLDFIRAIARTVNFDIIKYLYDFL
UniProt Q8WYH8, whole entry: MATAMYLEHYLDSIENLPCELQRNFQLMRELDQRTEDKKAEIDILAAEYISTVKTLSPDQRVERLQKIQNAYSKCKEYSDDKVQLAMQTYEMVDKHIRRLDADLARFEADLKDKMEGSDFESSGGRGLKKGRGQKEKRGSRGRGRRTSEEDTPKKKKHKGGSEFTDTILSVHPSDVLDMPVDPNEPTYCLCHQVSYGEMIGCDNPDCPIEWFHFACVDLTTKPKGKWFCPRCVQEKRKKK
UniProt Q96EK7: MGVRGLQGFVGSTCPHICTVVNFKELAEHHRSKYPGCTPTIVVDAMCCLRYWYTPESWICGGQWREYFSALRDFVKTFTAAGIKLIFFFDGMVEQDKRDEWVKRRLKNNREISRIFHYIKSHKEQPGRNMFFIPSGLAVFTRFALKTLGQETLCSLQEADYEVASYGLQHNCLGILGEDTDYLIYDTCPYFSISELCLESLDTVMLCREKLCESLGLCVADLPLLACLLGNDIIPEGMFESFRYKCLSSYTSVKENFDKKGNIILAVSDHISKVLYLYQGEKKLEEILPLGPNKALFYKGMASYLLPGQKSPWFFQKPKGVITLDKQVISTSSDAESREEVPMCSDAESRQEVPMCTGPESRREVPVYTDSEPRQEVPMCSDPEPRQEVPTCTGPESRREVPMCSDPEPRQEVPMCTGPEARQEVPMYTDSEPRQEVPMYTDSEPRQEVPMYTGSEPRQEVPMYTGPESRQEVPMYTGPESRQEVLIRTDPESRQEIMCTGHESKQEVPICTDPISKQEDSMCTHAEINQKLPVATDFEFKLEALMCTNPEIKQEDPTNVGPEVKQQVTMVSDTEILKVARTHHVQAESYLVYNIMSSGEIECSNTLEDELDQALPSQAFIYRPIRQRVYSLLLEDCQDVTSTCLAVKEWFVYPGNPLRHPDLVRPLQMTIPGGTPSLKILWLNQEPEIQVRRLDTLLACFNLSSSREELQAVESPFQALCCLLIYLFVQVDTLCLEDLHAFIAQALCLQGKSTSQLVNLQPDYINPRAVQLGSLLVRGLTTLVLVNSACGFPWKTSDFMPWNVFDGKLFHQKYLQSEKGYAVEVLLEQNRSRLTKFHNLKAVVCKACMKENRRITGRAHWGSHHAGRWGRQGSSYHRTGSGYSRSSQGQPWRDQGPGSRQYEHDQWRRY
UniProt Q9NYF8, whole entry: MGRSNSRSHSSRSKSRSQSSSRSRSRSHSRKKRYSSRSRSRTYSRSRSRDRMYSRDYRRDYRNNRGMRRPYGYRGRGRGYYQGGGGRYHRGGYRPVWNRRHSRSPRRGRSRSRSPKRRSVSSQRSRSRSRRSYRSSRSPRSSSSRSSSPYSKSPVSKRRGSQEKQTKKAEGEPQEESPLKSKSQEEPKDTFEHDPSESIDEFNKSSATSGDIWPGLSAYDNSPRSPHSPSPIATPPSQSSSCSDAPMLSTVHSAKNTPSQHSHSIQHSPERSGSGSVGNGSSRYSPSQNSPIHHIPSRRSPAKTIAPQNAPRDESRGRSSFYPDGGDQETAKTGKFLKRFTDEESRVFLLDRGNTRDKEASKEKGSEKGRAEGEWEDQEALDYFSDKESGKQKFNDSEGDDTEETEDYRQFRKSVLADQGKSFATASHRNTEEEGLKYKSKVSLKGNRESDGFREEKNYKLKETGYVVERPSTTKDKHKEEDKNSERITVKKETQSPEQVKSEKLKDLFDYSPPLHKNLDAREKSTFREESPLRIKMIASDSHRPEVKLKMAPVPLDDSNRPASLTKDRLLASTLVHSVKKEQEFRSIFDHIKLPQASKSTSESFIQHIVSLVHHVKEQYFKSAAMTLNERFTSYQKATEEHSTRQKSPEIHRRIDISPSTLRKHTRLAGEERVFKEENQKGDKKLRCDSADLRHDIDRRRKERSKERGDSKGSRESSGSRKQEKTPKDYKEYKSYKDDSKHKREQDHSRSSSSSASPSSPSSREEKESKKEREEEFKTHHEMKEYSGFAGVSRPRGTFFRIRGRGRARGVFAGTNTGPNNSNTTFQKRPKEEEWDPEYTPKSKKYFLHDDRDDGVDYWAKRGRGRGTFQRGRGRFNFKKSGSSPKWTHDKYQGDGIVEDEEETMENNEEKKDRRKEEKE
UniProt Q8NEM7: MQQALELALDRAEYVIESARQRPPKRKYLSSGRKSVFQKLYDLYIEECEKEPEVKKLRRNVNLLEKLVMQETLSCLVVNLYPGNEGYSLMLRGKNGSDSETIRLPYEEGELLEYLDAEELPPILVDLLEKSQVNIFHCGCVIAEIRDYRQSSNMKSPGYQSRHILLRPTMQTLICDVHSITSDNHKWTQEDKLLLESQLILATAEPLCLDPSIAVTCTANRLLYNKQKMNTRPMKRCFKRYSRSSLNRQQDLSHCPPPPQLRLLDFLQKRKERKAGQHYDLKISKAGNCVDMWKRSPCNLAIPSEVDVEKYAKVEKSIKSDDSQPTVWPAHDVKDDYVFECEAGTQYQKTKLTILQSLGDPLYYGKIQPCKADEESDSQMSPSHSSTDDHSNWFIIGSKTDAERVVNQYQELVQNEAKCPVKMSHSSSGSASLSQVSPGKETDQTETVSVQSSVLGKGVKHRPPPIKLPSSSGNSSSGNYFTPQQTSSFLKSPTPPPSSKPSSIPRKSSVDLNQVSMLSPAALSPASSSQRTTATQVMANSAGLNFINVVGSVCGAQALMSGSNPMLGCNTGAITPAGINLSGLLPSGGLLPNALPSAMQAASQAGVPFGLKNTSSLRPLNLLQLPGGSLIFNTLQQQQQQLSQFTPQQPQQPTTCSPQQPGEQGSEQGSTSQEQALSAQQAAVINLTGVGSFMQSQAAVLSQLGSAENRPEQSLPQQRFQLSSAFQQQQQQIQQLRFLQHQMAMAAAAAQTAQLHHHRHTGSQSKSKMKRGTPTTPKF
UniProt Q6P1N9: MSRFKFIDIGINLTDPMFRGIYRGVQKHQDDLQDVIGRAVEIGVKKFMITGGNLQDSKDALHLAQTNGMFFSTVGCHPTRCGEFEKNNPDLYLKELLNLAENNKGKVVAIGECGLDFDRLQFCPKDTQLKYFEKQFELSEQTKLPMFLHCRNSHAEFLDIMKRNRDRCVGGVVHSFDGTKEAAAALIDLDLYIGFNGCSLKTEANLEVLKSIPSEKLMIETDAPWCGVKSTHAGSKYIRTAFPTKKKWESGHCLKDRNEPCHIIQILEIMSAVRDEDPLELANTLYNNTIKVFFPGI

± gives the standard deviation of the averaged measurements. Only a part is listed here, and it is no random draw. Most entries show no effect beyond the scatter of the controls.

Compound in the assay: Nc1ncnc2c1ncn2[C@@H]1O[C@H](COP(=O)(O)OP(=O)(O)OP(=O)(O)O)[C@@H](O)[C@H]1O [adenosine triphosphate]
The assay can be described thus: NP40-soluble protein abundance relative to vehicle (solubility fold change) (ratio); higher = more soluble protein in presence of ATP. An outline of the steps:
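Crude Jurkat lysate, prepared by Dounce homogenisation, was exposed to eight concentrations from 0.1 to 10 mM for 10 min at room temperature and then 3 min at 37 °C. Solubilisation used 0.8% NP40 with benzonase for 60 min at 4 °C, followed by ultracentrifugation and TMT labelling of the supernatant for LC-MS/MS. After vsn normalisation of intensities, each value is the fold change against the detergent-processed vehicle within each replicate, across three independent experiments.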

Take “E9PEB9 and related entries (UniProt Q03001)”: the NP40-soluble protein abundance was found to be 0.998 ± 0.088 (concentration: 0.1mM); 0.911 ± 0.048 (concentration: 0.5mM); 0.92 ± 0.1 (concentration: 1mM); 0.924 ± 0.041 (concentration: 2mM); 0.942 ± 0.081 (concentration: 4mM); 0.959 ± 0.15 (concentration: 6mM). For the same target, the NP40-soluble protein abundance (concentration: 8mM) was 0.899 ± 0.09 and the NP40-soluble protein abundance (concentration: 10mM) was 0.968 ± 0.056.
As for “F8WCD0 and related entries (UniProt Q8NC42)”, the NP40-soluble protein abundance reads like this: (concentration: 0.1mM) 1.04 ± 0.057; (concentration: 0.5mM) 1.02 ± 0.14; (concentration: 1mM) 0.964 ± 0.023; (concentration: 2mM) 0.992 ± 0.013; (concentration: 4mM) 1.08 ± 0.076; (concentration: 6mM) 1.03 ± 0.029. The NP40-soluble protein abundance (concentration: 8mM) turned out to be 0.945 ± 0.021 and the NP40-soluble protein abundance (concentration: 10mM) came to 1 ± 0.076.
For the target “F6T1Q0 and related entries (UniProt Q6L8Q7)”, the NP40-soluble protein abundance reads like this: (concentration: 0.1mM) 1.08 ± 0.074; (concentration: 0.5mM) 1.06 ± 0.085.
For the target “G3V0I5 and related entries (UniProt P49821)”, the NP40-soluble protein abundance (concentration: 0.1mM) was 1.01 ± 0.059; the NP40-soluble protein abundance (concentration: 0.5mM) stood at 0.988 ± 0.055; the NP40-soluble protein abundance (concentration: 1mM) stood at 0.986 ± 0.025; the NP40-soluble protein abundance (concentration: 2mM) turned out to be 0.96 ± 0.02; the NP40-soluble protein abundance (concentration: 4mM) is 0.944 ± 0.033; the NP40-soluble protein abundance (concentration: 6mM) was 0.94 ± 0.056. In addition, the NP40-soluble protein abundance reads like this: (concentration: 8mM) 0.962 ± 0.052; (concentration: 10mM) 0.953 ± 0.046.
In the case of “G3V5N8 and related entries (UniProt Q9HBF4)”, the NP40-soluble protein abundance runs as follows: (concentration: 0.1mM) 1.02 ± 0.044; (concentration: 0.5mM) 0.941 ± 0.081.
Take “E9PB61 and related entries (UniProt Q86V81)”: the NP40-soluble protein abundance (concentration: 0.1mM) was found to be 0.936 ± 0.065; the NP40-soluble protein abundance (concentration: 0.5mM) is 0.945 ± 0.099; the NP40-soluble protein abundance (concentration: 1mM) is 1.04 ± 0.094; the NP40-soluble protein abundance (concentration: 2mM) was determined as 1.09 ± 0.07; the NP40-soluble protein abundance (concentration: 4mM) came out at 1.22 ± 0.13; the NP40-soluble protein abundance (concentration: 6mM) stood at 1.44 ± 0.15. In addition, the NP40-soluble protein abundance reads like this: (concentration: 8mM) 1.53 ± 0.13; (concentration: 10mM) 1.66 ± 0.24.
In the case of “F5GWN5 and related entries (UniProt O00750)”, the NP40-soluble protein abundance is, setting by setting: (concentration: 0.1mM) 1.02 ± 0.035; (concentration: 0.5mM) 1.01 ± 0.057; (concentration: 1mM) 0.994 ± 0.022; (concentration: 2mM) 1.03 ± 0.025; (concentration: 4mM) 1.05 ± 0.013; (concentration: 6mM) 1.02 ± 0.039. Moreover, the NP40-soluble protein abundance is, setting by setting: (concentration: 8mM) 1.03 ± 0.028; (concentration: 10mM) 1.03 ± 0.051.
Turning to “E7EQI7 and related entries (UniProt Q12768)”, the NP40-soluble protein abundance is, setting by setting: (concentration: 0.1mM) 1.05 ± 0.061; (concentration: 0.5mM) 1.07 ± 0.095; (concentration: 1mM) 1.06 ± 0.1; (concentration: 2mM) 1.06 ± 0.075; (concentration: 4mM) 1.05 ± 0.076; (concentration: 6mM) 0.962 ± 0.11. Further, the NP40-soluble protein abundance is, setting by setting: (concentration: 8mM) 1.07 ± 0.068; (concentration: 10mM) 1.02 ± 0.05.
As for “G3V0H0 and related entries (UniProt O43913)”, the NP40-soluble protein abundance was 1.05 ± 0.11 (concentration: 0.1mM); 1.06 ± 0.099 (concentration: 0.5mM); 1.03 ± 0.12 (concentration: 1mM); 1.01 ± 0.097 (concentration: 2mM); 1.02 ± 0.08 (concentration: 4mM); 1 ± 0.13 (concentration: 6mM). Besides, the NP40-soluble protein abundance runs as follows: (concentration: 8mM) 1.08 ± 0.078; (concentration: 10mM) 1.02 ± 0.061.
Regarding “E7EUU4 and related entries (UniProt Q04637)”, the NP40-soluble protein abundance is, setting by setting: (concentration: 0.1mM) 1.02 ± 0.018; (concentration: 0.5mM) 1.11 ± 0.049.
Turning to “E9PEN0 and related entries (UniProt Q8WYH8)”, the NP40-soluble protein abundance was 0.906 ± 0.13 (concentration: 0.1mM); 1.16 ± 0.2 (concentration: 0.5mM); 1.15 ± 0.2 (concentration: 1mM); 1.3 ± 0.29 (concentration: 2mM); 1.36 ± 0.18 (concentration: 4mM); 1.5 ± 0.16 (concentration: 6mM). In addition, the NP40-soluble protein abundance is, setting by setting: (concentration: 8mM) 1.85 ± 0.6; (concentration: 10mM) 1.86 ± 0.39.
As to “F5GY05 and related entries (UniProt Q96EK7)”, the NP40-soluble protein abundance (concentration: 0.1mM) was determined as 1.01 ± 0.013; the NP40-soluble protein abundance (concentration: 0.5mM) came out at 1.04 ± 0.044; the NP40-soluble protein abundance (concentration: 1mM) stood at 1.03 ± 0.013; the NP40-soluble protein abundance (concentration: 2mM) was 1.0493 ± 0.001; the NP40-soluble protein abundance (concentration: 4mM) stood at 1.07 ± 0.017; the NP40-soluble protein abundance (concentration: 6mM) worked out at 1.06 ± 0.06. The NP40-soluble protein abundance was 1.07 ± 0.02 (concentration: 8mM) and 1.08 ± 0.052 (concentration: 10mM).
“E9PJA7 and related entries (UniProt Q9NYF8)”: the NP40-soluble protein abundance is 1.03 ± 0.017 (concentration: 0.1mM); 1.19 ± 0.032 (concentration: 0.5mM); 1.31 ± 0.092 (concentration: 1mM); 1.41 ± 0.056 (concentration: 2mM); 1.54 ± 0.086 (concentration: 4mM); 1.7 ± 0.11 (concentration: 6mM). In addition, the NP40-soluble protein abundance was 1.65 ± 0.07 (concentration: 8mM) and 1.7 ± 0.06 (concentration: 10mM).
For the target “F6S7C4 and related entries (UniProt Q8NEM7)”, the NP40-soluble protein abundance reads like this: (concentration: 0.1mM) 1.01 ± 0.026; (concentration: 0.5mM) 1.07 ± 0.078; (concentration: 1mM) 1.09 ± 0.12; (concentration: 2mM) 1.15 ± 0.1; (concentration: 4mM) 1.14 ± 0.093; (concentration: 6mM) 1.12 ± 0.13. The NP40-soluble protein abundance (concentration: 8mM) was 1.16 ± 0.093 and the NP40-soluble protein abundance (concentration: 10mM) came to 1.2 ± 0.11.
“E5RG17 and related entries (UniProt Q6P1N9)”: the NP40-soluble protein abundance reads like this: (concentration: 0.1mM) 1 ± 0.032; (concentration: 0.5mM) 1.03 ± 0.047; (concentration: 1mM) 0.989 ± 0.02; (concentration: 2mM) 0.974 ± 0.013; (concentration: 4mM) 0.965 ± 0.02; (concentration: 6mM) 0.963 ± 0.052. In addition, the NP40-soluble protein abundance amounted to 0.937 ± 0.019 (concentration: 8mM) and 0.968 ± 0.019 (concentration: 10mM).
